According to the supplement of paper PMC6078165:
Values are relative to the signal before dosing, not to a vehicle control; the signal also falls without drug.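 Fibroblast labels name human fibroblasts: mostly primary ones from tissues such as uterus (C12385, HUF), lung (H6013), bone (Hs27A), adrenal (HADF) and skin (WS1), plus mammary HMF and breast cancer-associated Hs343T. The cancer cells are basal-like or mesenchymal-like triple-negative breast cancer lines. The paper calls a changed response a hit when it shifts by more than 3x the replicate standard deviation. The tissue of the other fibroblasts is not given here.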

Tested on: MDAMB436
Assay: relative JC-1 red fluorescence (viability) vs pre-drug, coculture with fibroblast (fraction); higher = more viable cancer cells
Procedure: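 JC-1 labelled TNBC cells cocultured 1:1 (1,500 cells each) with CellTrace Violet stained primary or stromal fibroblasts in 384-well plates in FluoroBrite medium, treated with one of 42 anticancer drugs at 0.1, 1, 10 or 100 uM. JC-1 red fluorescence (mitochondrial integrity in cancer cells only) was read by plate reader every 8 h for 72 h. Values are normalised to each well's pre-drug value. The stock of one drug was tenfold lower, so its dose labels may be too high.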

O=c1[nH]cc(F)c(=O)[nH]1 [Fluorouracil]
relative JC-1 red fluorescence
Settings	8 h	16 h	24 h	32 h	40 h	48 h	56 h	64 h	72 h
10 µM, coculture fibroblast: C12385	0.821	0.732	0.7108	0.64	0.599	0.574	0.554	0.532	0.529
10 µM, coculture fibroblast: H6013	0.835	0.748	0.732	0.731	0.739	0.761	0.738	0.73	0.687
10 µM, coculture fibroblast: H6019	0.762	0.645	0.644	0.584	0.559	0.55	0.528	0.518	0.511
10 µM, coculture fibroblast: H6076	0.723	0.59	0.5325	0.501	0.494	0.484	0.498	0.511	0.514
10 µM, coculture fibroblast: H6231	0.7131	0.634	0.554	0.521	0.495	0.475	0.454	0.444	0.426
10 µM, coculture fibroblast: HADF	0.883	0.823	0.78	0.752	0.728	0.739	0.695	0.678	0.64
10 µM, coculture fibroblast: HCFa	0.793	0.6898	0.656	0.628	0.595	0.6	0.54	0.53	0.479
10 µM, coculture fibroblast: HCPF	0.7581	0.654	0.54	0.499	0.466	0.428	0.396	0.38	0.364
10 µM, coculture fibroblast: HHSteC	0.868	0.787	0.765	0.733	0.707	0.701	0.638	0.613	0.5603
10 µM, coculture fibroblast: HMF	0.76338	0.658	0.549	0.519	0.497	0.468	0.464	0.454	0.45
10 µM, coculture fibroblast: HPFa	0.894	0.871	0.829	0.803	0.801	0.83	0.766	0.751	0.702
10 µM, coculture fibroblast: HUF	0.851	0.755	0.729	0.652	0.603	0.575	0.552	0.542	0.538
10 µM, coculture fibroblast: Hs5	0.781	0.683	0.587	0.535	0.51	0.476	0.483	0.456	0.4518
10 µM, coculture fibroblast: Hs27A	0.826	0.757	0.715	0.697	0.669	0.706	0.642	0.644	0.59
10 µM, coculture fibroblast: Hs343T	0.709	0.578	0.53	0.488	0.469	0.443	0.427	0.416	0.421
10 µM, coculture fibroblast: WS1	0.805	0.68	0.637	0.555	0.511	0.485	0.461	0.44	0.427
100 µM, coculture fibroblast: C12385	0.761	0.74	0.726	0.652	0.617	0.603	0.588	0.58	0.578
100 µM, coculture fibroblast: H6013	0.8252	0.7232	0.71	0.705	0.702	0.72	0.688	0.675	0.634
100 µM, coculture fibroblast: H6019	0.736	0.726	0.724	0.671	0.649	0.634	0.608	0.589	0.572
100 µM, coculture fibroblast: H6076	0.807	0.63	0.6134	0.566	0.54	0.503	0.502	0.491	0.478
100 µM, coculture fibroblast: H6231	0.7582	0.663	0.601	0.5497	0.512	0.476	0.468	0.457	0.442
100 µM, coculture fibroblast: HADF	0.852	0.799	0.821	0.816	0.759	0.744	0.709	0.642	0.758
100 µM, coculture fibroblast: HCFa	0.752	0.67028	0.628	0.585	0.568	0.582	0.525	0.52	0.477
100 µM, coculture fibroblast: HCPF	0.78	0.651	0.62	0.565	0.531	0.491	0.467	0.451	0.435
100 µM, coculture fibroblast: HHSteC	0.786	0.741	0.708	0.67	0.674	0.684	0.633	0.618	0.569
100 µM, coculture fibroblast: HMF	0.786	0.6107	0.5735	0.523	0.491	0.451	0.446	0.432	0.423
100 µM, coculture fibroblast: HPFa	0.8846	0.805	0.778	0.735	0.73	0.746	0.673	0.659	0.6
100 µM, coculture fibroblast: HUF	0.82824	0.727	0.717	0.6479	0.595	0.56904	0.5455	0.537	0.53
100 µM, coculture fibroblast: Hs5	0.8273	0.689	0.64	0.578	0.547	0.51	0.511	0.497	0.481
100 µM, coculture fibroblast: Hs27A	0.819	0.764	0.754	0.739	0.717	0.776	0.695	0.686	0.625
100 µM, coculture fibroblast: Hs343T	0.764	0.599	0.528	0.469	0.423	0.382	0.371	0.358	0.3542
100 µM, coculture fibroblast: WS1	0.743	0.7243	0.706	0.635	0.597	0.58	0.569	0.545	0.538
